Data on 1 substance can be found in article PMC9911437.

Sequences of proteins named here, by UniProt entry; tags and fusion partners are left off.
UniProt O35129: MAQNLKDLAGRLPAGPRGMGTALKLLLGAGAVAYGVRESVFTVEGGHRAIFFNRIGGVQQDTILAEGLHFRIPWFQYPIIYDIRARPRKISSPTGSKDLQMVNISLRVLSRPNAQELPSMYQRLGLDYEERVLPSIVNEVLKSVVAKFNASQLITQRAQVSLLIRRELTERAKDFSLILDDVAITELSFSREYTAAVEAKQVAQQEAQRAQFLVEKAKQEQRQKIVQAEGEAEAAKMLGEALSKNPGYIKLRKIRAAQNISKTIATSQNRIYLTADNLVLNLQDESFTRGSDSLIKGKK

These are yes or no findings as the source states them, for the method shown. Binding seen in cells or lysates may run through a third protein. Here binding means that the protein was enriched with, or labelled near, the bait; the list need not be complete. Sequences can lack the tags named with a protein.

The assay addresses T1, GST-PE_PGRS30 fusion protein (Mycobacterium tuberculosis) (UniProt Q79FL8).
T1 sequence: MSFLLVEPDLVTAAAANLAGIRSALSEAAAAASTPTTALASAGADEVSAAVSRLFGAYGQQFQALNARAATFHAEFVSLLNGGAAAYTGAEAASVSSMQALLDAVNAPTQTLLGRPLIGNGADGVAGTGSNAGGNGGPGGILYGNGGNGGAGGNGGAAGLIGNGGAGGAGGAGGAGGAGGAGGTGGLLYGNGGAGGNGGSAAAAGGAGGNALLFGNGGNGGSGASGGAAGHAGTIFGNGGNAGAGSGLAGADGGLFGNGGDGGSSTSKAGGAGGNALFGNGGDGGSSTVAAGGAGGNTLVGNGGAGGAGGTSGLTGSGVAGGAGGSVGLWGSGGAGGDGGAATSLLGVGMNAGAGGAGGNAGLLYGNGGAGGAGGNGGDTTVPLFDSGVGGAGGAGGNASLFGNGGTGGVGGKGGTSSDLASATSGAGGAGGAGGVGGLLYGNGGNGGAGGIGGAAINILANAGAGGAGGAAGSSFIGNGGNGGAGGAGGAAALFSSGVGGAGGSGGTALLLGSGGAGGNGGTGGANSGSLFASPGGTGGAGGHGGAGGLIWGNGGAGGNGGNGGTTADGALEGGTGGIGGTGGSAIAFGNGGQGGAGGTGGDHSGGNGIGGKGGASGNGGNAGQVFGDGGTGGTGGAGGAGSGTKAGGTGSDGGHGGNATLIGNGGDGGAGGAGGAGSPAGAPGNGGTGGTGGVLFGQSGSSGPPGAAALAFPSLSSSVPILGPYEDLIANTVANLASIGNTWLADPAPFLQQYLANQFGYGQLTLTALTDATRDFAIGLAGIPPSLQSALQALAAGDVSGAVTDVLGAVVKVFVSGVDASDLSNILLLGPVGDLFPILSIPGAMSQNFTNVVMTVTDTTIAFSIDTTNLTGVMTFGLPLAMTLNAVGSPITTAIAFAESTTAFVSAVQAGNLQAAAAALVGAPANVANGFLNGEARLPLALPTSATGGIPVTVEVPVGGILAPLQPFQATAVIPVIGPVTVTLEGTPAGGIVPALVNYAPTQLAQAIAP
Kind of assay: affinity purification with mass spectrometry; […] (50 mM Hepes pH 7.5, 150 mM NaCl, 0.1% Triton X-100, 10% glycerol) […]; only the target purified.

In the case of “prohibitin 2 (PHB2), endogenous in RAW264.7 cells (from UniProt O35129 1-299)”, the binding entry was “binds”.
